Reference: US20150225457A1
No constants are given. Whether binding was seen depends on the method and setting. Some binding calls cover weakened binding; strength is not graded here. Tags and fused reporters may be left off the sequences shown.

Protein sequences, listed by entry. Tags and fused reporters are not part of them. Residues count along the entry.
UniProt Q8VIM0, residues 20-281: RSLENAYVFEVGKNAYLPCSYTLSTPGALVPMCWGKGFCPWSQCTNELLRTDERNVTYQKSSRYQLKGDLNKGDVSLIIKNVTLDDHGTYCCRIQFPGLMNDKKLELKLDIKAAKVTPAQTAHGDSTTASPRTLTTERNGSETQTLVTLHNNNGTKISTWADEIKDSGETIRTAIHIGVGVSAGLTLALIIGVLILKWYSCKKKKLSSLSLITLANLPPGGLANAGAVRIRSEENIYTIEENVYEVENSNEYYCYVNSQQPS

Key:
[1] = target: TIM3 transgenically overexpressed on primary mouse T cells (human CD2 promotor) (UniProt Q8VIM0); assay: flow cytometry, staining of primary T cells of TIM3Tg CEACAM1KO mice with CEACAM1-NFc-APC, MFI with CEACAM1KO mice set as 1
[2] = target: TIM3 transgenically overexpressed on primary mouse T cells (human CD2 promotor) (UniProt Q8VIM0); assay: flow cytometry, staining of primary T cells of TIM3Tg WT mice with CEACAM1-NFc-APC, MFI with CEACAM1KO mice set as 1
[3] = target: TIM3 transgenically overexpressed on primary mouse T cells (human CD2 promotor) (UniProt Q8VIM0); assay: flow cytometry staining of primary TIM3 Tg T cells with mouse N-domain-Fc (FIG. 9)

Measured: binding

B1: mouse CEACAM1 N-domain Fc fusion protein (Fc fusion, UniProt P31809 35-142, looked up, not shown: a dimerising Fc or GST)
chain: EVTIEAVPPQVAEDNNVLLLVHNLPLALGAFAWYKGNTTAIDKEIARFVPNSNMNFTGQAYSGREIIYSNGSLLFQMITMKDMGVYTLDMTDENYRRTQATVRFHVHP
binds: all assays above
